Source: PubChem BioAssay AID1259254 (NCATS, 2017)

Assay: 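Finding genes that stop cells copying their DNA twice in one cycle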 (primary screen)
Cell system: human HCT116 colorectal cancer cells
Reagents: single siRNA against human genes
Time to read-out: 3 days
Read-out: 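Nuclei stained with Hoechst and imaged; cell-cycle phase assigned by DNA content; G2 share scaled per plate, non-targeting siRNA 0%, GMNN siRNA 100%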
Scale: G2 robust z-score and G2 cells, % of GMNN control: higher = more G2 cells, more excess DNA replication; raw share of cells in G2: higher = larger share of cells with G2 DNA content
Hit rule: 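Active siRNAs have a G2 robust z of 5 or more median absolute deviations over the median, which in these data means about 38% or higher of GMNN control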
Here is an unselected part of about 59,000 deposited reagents. Over the whole deposit, about 1,550 (2.6%) were called active. 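G2 share is only a proxy for re-replication; each gene was hit by three separate siRNAs, and active genes were retested.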 Raw values vary from plate to plate and are shown uncorrected. Reagents against one gene are numbered here. Not stated in the record: the amount of reagent.

| gene knocked down | siRNA no. | G2 robust z-score | G2 cells, % of GMNN control | raw share of cells in G2 (%) | activity call |
| --- | --- | --- | --- | --- | --- |
| CNNM1 | 1 | 0.604 | 7.22 | 7.13 | inactive |
| CNNM1 | 2 | 1.39 | 12.7 | 9.46 | inactive |
| CNNM1 | 3 | 1.23 | 11.6 | 7.35 | inactive |
| ACP6 | 1 | -1.28 | -6.03 | 2.84 | inactive |
| ACP6 | 2 | 0.082 | 3.54 | 5.37 | inactive |
| ACP6 | 3 | -0.606 | -1.3 | 3.11 | inactive |
| KDM8 | 1 | 0.0651 | 3.43 | 5.87 | inactive |
| KDM8 | 2 | 0.304 | 5.11 | 6.54 | inactive |
| KDM8 | 3 | -0.91 | -3.44 | 1.44 | inactive |
| RAI1 | 1 | 0.743 | 8.2 | 6.25 | inactive |
| RAI1 | 2 | -1.54 | -7.87 | 2.48 | inactive |
| RAI1 | 3 | 1.48 | 13.4 | 8.95 | inactive |
| CFAP99 | 1 | 0.0342 | 3.21 | 4.98 | inactive |
| CFAP99 | 2 | -0.875 | -3.19 | 2.25 | inactive |
| CFAP99 | 3 | -0.552 | -0.914 | 4.41 | inactive |
| CFAP99 | 4 | -0.58 | -1.12 | 3.19 | inactive |
| CFAP99 | 5 | 0.282 | 4.95 | 5.29 | inactive |
| CFAP99 | 6 | 0.625 | 7.37 | 5.62 | inactive |
| CCT8L2 | 1 | 1.49 | 13.4 | 7.72 | inactive |
| CCT8L2 | 2 | -0.439 | -0.118 | 3.12 | inactive |
| CCT8L2 | 3 | 0.971 | 9.8 | 6.96 | inactive |
| SPHK2 | 1 | -0.0757 | 2.43 | 6.35 | inactive |
| SPHK2 | 2 | -0.993 | -4.02 | 3.73 | inactive |
| SPHK2 | 3 | -1 | -4.06 | 2.38 | inactive |
| EPS8L1 | 1 | 0.331 | 5.3 | 5.5 | inactive |
| EPS8L1 | 2 | 1.29 | 12.1 | 9.35 | inactive |
| EPS8L1 | 3 | -1.03 | -4.3 | 1.77 | inactive |
| SEMA6C | 1 | 0.675 | 7.72 | 9.05 | inactive |
| SEMA6C | 2 | 0.241 | 4.66 | 5.35 | inactive |
| SEMA6C | 3 | 3.53 | 27.8 | 17.4 | inactive |
